Test results taken from US20200377892A1.
Results are given in words; binding and its absence hold for the method and conditions named. Binding seen in cells or lysates may run through a third protein. Some entries that bind do so weakly or less than the wild type.

Tests used:
[1] = biological target: HBV capsid protein (HBc) (hepatitis B virus) (UniProt P0C6G7); test: co-immunoprecipitation with anti-HBc antibody, Western blot, HepaRG-TR-HBc cells
[2] = biological target: HBV capsid protein (HBc) (hepatitis B virus) (UniProt P0C6G7); test: proximity ligation assay in HBV-infected HepG2-NTCP cells

histone chaperone HIRA (from UniProt P54198 1-1017)
binding [1]: binds
binding [2]: binds
